Patent publication US10702577B2, “Combination therapies using cyclosporine and aromatic cationic peptides” (STEALTH BIOTHERAPEUTICS CORP, priority 2010, dated 2020)
“And” between values parts separate entries of the source, which are not always exact repeats. Identical values can stand only once. Part of at least one peptide drawing is inferred or uncertain, most often the ends. Peptide text beside a SMILES is read from it.

How the values were obtained:
[1] = system: rabbit model of acute myocardial ischemia and reperfusion; test: Rabbit model of acute myocardial ischemia and reperfusion, infarct size by histomorphometry (Example 1); assay type: in vivo, New Zealand white rabbits
[2] = system: kidneys, acute renal injury (ARI); conditions: U.S. patent application Ser. No. 12/392,565; cited from earlier work
[3] = system: islet cells; conditions: U.S. Pat. Nos. 7,550,439 and 7,781,405; cited from earlier work
[4] = system: transplanted tissue or organ; cyclosporine nephrotoxicity; test: Peptide with cyclosporine in transplant patients: organ health and nephrotoxicity (Example 7); assay type: in vivo; conditions: subjects on cyclosporine who receive the peptide versus those who do not; predicted
Description: To prevent organ or tissue rejection after transplant, patients often receive a regimen of the immunosuppressive drug cyclosporine. Cyclosporine levels are established and maintained in the subject at levels to effectively suppress the immune system. However, nephrotoxicity is a concern for these subjects, and the level of the drug in the subject's blood is monitored carefully. Cyclosporine doses are adjusted accordingly in order to not only prevent rejection, but also to deter these potentially damaging side effects. Typically, an adult transplant patient receives cyclosporine as follows: IV: 2 to 4 mg/kg/day IV infusion once a day over 4 to 6 hours, or 1 to 2 mg/kg IV infusion twice a day over 4 to 6 hours, or 2 to 4 mg/kg/day as a continuous IV infusion over 24 hours. Capsules: 8 to 12 mg/kg/day orally in 2 divided doses. Solution: 8 to 12 mg/kg orally once a day. […]
A therapeutically effective amount of an aromatic-cationic peptide or pharmaceutically acceptable salt thereof such as acetate or trifluoroacetate salt is administered to subjects prior to, during and/or after transplant as show in Table 13 above. Subjects are monitored for health and function of the transplanted tissue or organ, as well as the incidence and severity of nephrotoxicitity often seen with prolonged cyclosporine administration.

Cc1cc(O)cc(C)c1C[C@H](NC(=O)[C@H](N)CCCNC(=N)N)C(=O)N[C@@H](CCCCN)C(=O)N[C@@H](Cc1ccccc1)C(N)=O [PEPTIDE, D-Arg-2′6′-Dmt-Lys-Phe-NH2] (HELM PEPTIDE1{[dR].[Cc1cc(O)cc(C)c1C[C@H](N[*:1])C(=O)[*:2]].K.F.[am]}$$$$V2.0)
Percent Difference in IA/AR from Placebo ([1]; group mean versus placebo group): −59.0%
Group Mean IA/AR ([1]; group mean, n=7): 16.2%
reduction of size of myocardial infarct area relative to control animals ([1]; rabbits in which there was a definable response to treatment): 59%
infarct size compared to the control ([1]; result in words): decreased infarct size
IA/LV (infarcted area to left ventricular area) ([1]; single animals, peptide IV continuous infusion from 10 min into 30 min ischemia and for 180 min after reperfusion): 4.3% and 10.5% and 8.1% and 6.7% and 8.3% and 13.3% and 20.5%
IA/AR (infarcted area to area of risk) ([1]; single animals, same regimen, 3 h post-reperfusion): 7.3% and 17.2% and 12.8% and 13.8% (2×) and 19.7% and 28.6%
protection of kidneys from acute renal injury (ARI) [2]: protect kidneys from acute renal injury (ARI)
islet cell apoptosis [3]: decrease islet cell apoptosis
viability of islet cells after transplantation [3]: enhance viability of islet cells after transplantation
health of the transplanted organ or tissue [4]: healthier transplanted organ or tissue
